Data as given in PubChem BioAssay AID1053208 (Peter MacCallum Cancer Centre, 2014)
Test: 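Find knock-downs that sensitise mouse osteosarcoma cells to doxorubicin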 (primary screen). Cells: mouse osteosarcoma cells, early-passage culture from an engineered mouse model of fibroblastic bone tumour. Knock-down reagent: siRNA pool against mouse genes, 40 nM. Timing: about 120 h (48 h before drug, then 72 h with drug). Treatment: doxorubicin 100 nM for 72 h, roughly 30-40% inhibitory dose. Measurement: 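Luminescent ATP signal taken as viability with or without 100 nM doxorubicin for 72 h; mean of two wells set against non-targeting siRNA and turned into robust z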. Direction: viability z-score with doxorubicin and doxorubicin viability vs non-targeting: higher = more viable cells under doxorubicin; viability z-score without drug: higher = more viable cells with knock-down alone; z-score of drug to no-drug ratio: higher = less drug sensitisation by knock-down. Hit rule: 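a pool counts as active when its viability z-score with doxorubicin is -2 or below and its z-score without drug lies between -2 and 2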.
Here is one part, drawn at random, of about 17,000 deposited reagents. Over the whole deposit, 788 (4.7%) were called active. 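Calls rest on z-score classes alone; an extra cut-off of viability at most 70% of control was not applied to them.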 Unmarked entries are inactive.

Target gene | combined z-score class | viability z-score with doxorubicin | viability z-score without drug | z-score of drug to no-drug ratio | doxorubicin viability vs non-targeting
Mc4r | no change with or without drug | 0.79 | 1.18 | 0.11 | 1.01
Slc7a1 | high cell count with and without drug | 3.26 | 2.7 | 1.46 | 1.23
Gtsf1l | high cell count without drug only | -0.79 | 2.19 | -1.91 | 0.87
Skp1 | no change with or without drug | 0.34 | -0.84 | 1.12 | 0.97
Fut9 | no change with or without drug | 0.45 | 1.18 | -0.22 | 0.98
Pdk4 | no change with or without drug | -0.67 | 0.34 | -0.79 | 0.88
Kif1b | no change with or without drug | -1.8 | -0.17 | -1.69 | 0.78
Kcnma1 | no change with or without drug | -0.45 | -0.17 | -0.22 | 0.9
Derl2 | no change with or without drug | 0.9 | 0.34 | 0.79 | 1.02
Tnfsf11 | no change with or without drug | -1.8 | -0.17 | -1.69 | 0.78
Slc2a12 | no change with or without drug | -0.45 | -0.84 | 0.22 | 0.9
Ccdc59 | no change with or without drug | -0.79 | -1.18 | 0.11 | 0.87
Ifit1bl2 | no change with or without drug | 0.67 | 1.52 | -0.22 | 1
Zfp296 | no change with or without drug | 0 | 0.51 | -0.22 | 0.94
Slc39a11 | no change with or without drug | 0.34 | -0.84 | 1.12 | 0.97
Gpr25 | high cell count with doxorubicin only | 2.02 | 0.84 | 1.57 | 1.12
Sycp1 | no change with or without drug | 1.46 | -0.51 | 2.02 | 1.07
Ptpdc1 | no change with or without drug | -0.67 | -0.51 | -0.22 | 0.88
Rnf31 | low cell count with and without drug | -2.7 | -2.53 | -1.24 | 0.7
Themis | no change with or without drug | -0.45 | 1.18 | -1.12 | 0.9
Gpatch2l | no change with or without drug | 0.9 | -0.51 | 1.46 | 1.02
Siral2 | no change with or without drug | 0.9 | 0.17 | 0.9 | 1.02
Myo9b | high cell count with doxorubicin only | 2.02 | 1.01 | 1.46 | 1.12
Elovl3 | no change with or without drug | -1.8 | 0.67 | -2.14 | 0.78
Ap3b1 | low cell count with doxorubicin only (active) | -2.36 | -1.18 | -1.69 | 0.73
Cope | no change with or without drug | -1.35 | -0.51 | -1.01 | 0.82
Brinp2 | no change with or without drug | 1.57 | 1.85 | 0.45 | 1.08
A430010J10Rik | no change with or without drug | -0.45 | -1.52 | 0.79 | 0.9
Ppy | no change with or without drug | 1.8 | 0.34 | 1.69 | 1.1
Mtx1 | high cell count with doxorubicin only | 2.25 | 0.17 | 2.36 | 1.14
Fer | no change with or without drug | 0.22 | 0 | 0.34 | 0.96
AW209491 | no change with or without drug | 0.56 | -0.34 | 0.9 | 0.99
Crlf3 | no change with or without drug | -0.34 | 0.51 | -0.56 | 0.91
Defa6 | no change with or without drug | 0 | 0.67 | -0.34 | 0.94
Or1l8 | no change with or without drug | -1.46 | 0.51 | -1.69 | 0.81
Rps2 | low cell count with and without drug | -3.15 | -2.53 | -1.8 | 0.66
Neurod1 | high cell count with doxorubicin only | 2.59 | 0.84 | 2.14 | 1.17
Slc16a13 | no change with or without drug | 0.67 | 0.51 | 0.45 | 1
Fbxw26 | no change with or without drug | -0.45 | 0.84 | -0.9 | 0.9
Fxyd2 | low cell count with doxorubicin only (active) | -2.02 | -1.18 | -1.35 | 0.76
Chpt1 | no change with or without drug | 0.22 | -0.84 | 1.01 | 0.96
Unc93a | no change with or without drug | -1.35 | -1.01 | -0.67 | 0.82
Exosc9 | no change with or without drug | 0.9 | 0.51 | 0.67 | 1.02
Dna2 | no change with or without drug | -0.9 | -0.51 | -0.56 | 0.86
Zdhhc2 | high cell count with doxorubicin only | 3.04 | 1.35 | 2.14 | 1.21
Jmy | no change with or without drug | -1.8 | -0.51 | -1.46 | 0.78
Mmgt1 | no change with or without drug | -0.56 | -0.51 | -0.11 | 0.89
Asprv1 | low cell count with doxorubicin only (active) | -2.7 | 0.67 | -3.04 | 0.7
HMGB2 | no change with or without drug | 0.9 | 0.17 | 0.9 | 1.02
Tmem268 | low cell count with and without drug | -2.36 | -3.04 | -0.34 | 0.73
Ccdc71 | no change with or without drug | 0.11 | 0.84 | -0.34 | 0.95
Arhgap11a | no change with or without drug | 0.34 | -0.34 | 0.67 | 0.97
Iqcc | no change with or without drug | 0.22 | -0.84 | 1.01 | 0.96
Epcam | no change with or without drug | -0.45 | 0.17 | -0.45 | 0.9
Abhd16a | high cell count with doxorubicin only | 2.02 | -0.17 | 2.36 | 1.12
Fdft1 | no change with or without drug | -0.67 | -0.17 | -0.45 | 0.88
Clec4a2 | no change with or without drug | -1.8 | -1.69 | -0.67 | 0.78
Mc1r | no change with or without drug | -1.69 | -1.52 | -0.67 | 0.79
Il1rl1 | no change with or without drug | -0.56 | -1.01 | 0.22 | 0.89
Trmt10c | no change with or without drug | -0.34 | -1.35 | 0.79 | 0.91
Fscn1 | no change with or without drug | 0.67 | -0.51 | 1.24 | 1
Rps15 | low cell count with and without drug | -6.41 | -4.89 | -4.72 | 0.37
Or5p79 | no change with or without drug | -0.34 | 0 | -0.22 | 0.91

Part of the list above, reformatted.
| Target gene | combined z-score class | viability z-score with doxorubicin | viability z-score without drug | z-score of drug to no-drug ratio | doxorubicin viability vs non-targeting |
| --- | --- | --- | --- | --- | --- |
| Tmem268 | low cell count with and without drug | -2.36 | -3.04 | -0.34 | 0.73 |
| Ccdc71 | no change with or without drug | 0.11 | 0.84 | -0.34 | 0.95 |
| Arhgap11a | no change with or without drug | 0.34 | -0.34 | 0.67 | 0.97 |
| Iqcc | no change with or without drug | 0.22 | -0.84 | 1.01 | 0.96 |
| Epcam | no change with or without drug | -0.45 | 0.17 | -0.45 | 0.9 |
| Abhd16a | high cell count with doxorubicin only | 2.02 | -0.17 | 2.36 | 1.12 |
| Fdft1 | no change with or without drug | -0.67 | -0.17 | -0.45 | 0.88 |
| Clec4a2 | no change with or without drug | -1.8 | -1.69 | -0.67 | 0.78 |
| Mc1r | no change with or without drug | -1.69 | -1.52 | -0.67 | 0.79 |
| Il1rl1 | no change with or without drug | -0.56 | -1.01 | 0.22 | 0.89 |
